This is one part of the list.
Experiments:
Assay in all cases: log2 fold change, soluble protein after heating vs DMSO (PISA); higher = thermal stabilisation; K562 cells, 10 uM, 30 min; active = over 0.2 and 3.5 SD of the protein, either way, in both replicates (recomputed)
[1] = compound: COC1=CC=C(C=C1)CN2C=CC3=C2C=C(C=C3)C(=O)NO
Summary of the method: (§1)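 K562 cells (2×10^6 cells/mL) were treated with 10 μM compound for 30 min, and aliquots were heated for 3 min over 48°C-58°C. Pooled aliquots were extracted in PBS with 0.5% NP-40 at 4°C, and the supernatant after 21,000xg for 90 min was measured by TMTpro 16plex LC-MS/MS with channel sums equalised. Reported thermal stability, relative to control samples and from duplicates, is a log2 fold change.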

Amino acid sequences for entries named in this document (tags omitted). A change or cut given only in a name is not applied to a line headed by its entry.
UniProt Q8N0X7: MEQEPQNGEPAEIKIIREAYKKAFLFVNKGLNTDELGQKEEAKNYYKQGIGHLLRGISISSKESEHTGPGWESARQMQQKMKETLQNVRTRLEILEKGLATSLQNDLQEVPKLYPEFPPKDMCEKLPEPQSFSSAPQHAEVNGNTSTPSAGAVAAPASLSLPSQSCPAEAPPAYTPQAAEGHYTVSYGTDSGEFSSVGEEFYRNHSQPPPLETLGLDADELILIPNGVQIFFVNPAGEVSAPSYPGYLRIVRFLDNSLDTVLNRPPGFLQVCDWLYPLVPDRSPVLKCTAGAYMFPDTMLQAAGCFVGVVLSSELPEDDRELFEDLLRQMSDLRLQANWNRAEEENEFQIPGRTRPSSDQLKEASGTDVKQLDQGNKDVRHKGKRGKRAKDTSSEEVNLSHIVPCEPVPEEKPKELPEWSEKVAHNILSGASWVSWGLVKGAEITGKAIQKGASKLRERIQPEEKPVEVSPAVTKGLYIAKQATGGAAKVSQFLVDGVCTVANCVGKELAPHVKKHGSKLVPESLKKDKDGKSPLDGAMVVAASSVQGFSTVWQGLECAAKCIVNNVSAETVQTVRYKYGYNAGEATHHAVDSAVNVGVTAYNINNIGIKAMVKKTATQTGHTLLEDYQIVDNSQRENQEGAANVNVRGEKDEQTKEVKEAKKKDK
UniProt Q9HD15: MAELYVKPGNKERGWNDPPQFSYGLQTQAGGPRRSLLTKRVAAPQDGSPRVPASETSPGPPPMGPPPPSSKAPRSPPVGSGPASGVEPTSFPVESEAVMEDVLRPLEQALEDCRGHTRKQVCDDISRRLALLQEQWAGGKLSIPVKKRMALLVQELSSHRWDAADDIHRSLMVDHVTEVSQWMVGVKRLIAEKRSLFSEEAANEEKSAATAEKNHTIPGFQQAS
UniProt Q9Y6E0: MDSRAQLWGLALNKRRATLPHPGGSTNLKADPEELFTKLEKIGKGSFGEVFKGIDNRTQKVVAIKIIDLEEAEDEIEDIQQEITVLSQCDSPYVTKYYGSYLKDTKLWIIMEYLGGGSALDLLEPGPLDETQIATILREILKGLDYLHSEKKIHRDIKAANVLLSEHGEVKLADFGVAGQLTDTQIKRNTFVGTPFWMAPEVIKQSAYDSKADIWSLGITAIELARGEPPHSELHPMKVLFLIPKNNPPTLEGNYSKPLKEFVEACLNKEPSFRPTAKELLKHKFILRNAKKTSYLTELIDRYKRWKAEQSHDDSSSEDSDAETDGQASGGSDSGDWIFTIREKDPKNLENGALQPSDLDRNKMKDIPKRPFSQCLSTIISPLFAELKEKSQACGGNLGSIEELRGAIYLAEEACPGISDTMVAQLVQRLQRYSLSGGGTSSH
UniProt O15269: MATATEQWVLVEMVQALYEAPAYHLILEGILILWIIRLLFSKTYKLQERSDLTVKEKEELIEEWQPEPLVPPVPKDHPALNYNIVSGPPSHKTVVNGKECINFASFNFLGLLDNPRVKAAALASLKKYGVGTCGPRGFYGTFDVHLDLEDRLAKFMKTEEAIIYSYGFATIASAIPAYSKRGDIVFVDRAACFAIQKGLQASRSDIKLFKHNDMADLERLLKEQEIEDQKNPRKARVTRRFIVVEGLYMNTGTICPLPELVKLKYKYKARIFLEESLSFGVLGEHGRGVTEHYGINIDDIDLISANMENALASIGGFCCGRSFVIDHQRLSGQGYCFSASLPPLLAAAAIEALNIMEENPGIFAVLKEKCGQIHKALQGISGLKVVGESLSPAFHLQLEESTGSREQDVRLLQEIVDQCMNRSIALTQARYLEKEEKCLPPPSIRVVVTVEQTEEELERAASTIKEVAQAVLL
UniProt P61011: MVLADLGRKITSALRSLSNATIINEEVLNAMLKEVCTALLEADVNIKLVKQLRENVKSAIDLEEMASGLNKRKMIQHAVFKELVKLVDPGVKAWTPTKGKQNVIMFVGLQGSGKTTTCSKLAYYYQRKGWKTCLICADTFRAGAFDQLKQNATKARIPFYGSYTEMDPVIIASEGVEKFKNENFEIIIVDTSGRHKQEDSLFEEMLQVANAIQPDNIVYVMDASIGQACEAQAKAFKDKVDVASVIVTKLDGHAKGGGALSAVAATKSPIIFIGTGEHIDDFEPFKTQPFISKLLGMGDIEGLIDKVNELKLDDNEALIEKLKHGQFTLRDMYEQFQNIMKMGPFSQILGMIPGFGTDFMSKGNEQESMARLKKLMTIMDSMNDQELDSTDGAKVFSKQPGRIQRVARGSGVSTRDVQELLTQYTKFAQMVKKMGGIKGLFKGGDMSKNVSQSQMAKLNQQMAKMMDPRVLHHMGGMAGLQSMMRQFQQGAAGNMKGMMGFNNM
UniProt O75494: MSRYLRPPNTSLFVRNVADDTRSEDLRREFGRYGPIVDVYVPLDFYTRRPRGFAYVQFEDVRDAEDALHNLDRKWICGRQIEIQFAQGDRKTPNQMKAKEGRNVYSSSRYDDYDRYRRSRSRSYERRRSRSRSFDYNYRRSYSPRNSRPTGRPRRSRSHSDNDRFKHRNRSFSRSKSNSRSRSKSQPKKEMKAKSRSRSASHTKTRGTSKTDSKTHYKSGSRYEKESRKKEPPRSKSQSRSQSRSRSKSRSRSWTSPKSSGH
UniProt P84103: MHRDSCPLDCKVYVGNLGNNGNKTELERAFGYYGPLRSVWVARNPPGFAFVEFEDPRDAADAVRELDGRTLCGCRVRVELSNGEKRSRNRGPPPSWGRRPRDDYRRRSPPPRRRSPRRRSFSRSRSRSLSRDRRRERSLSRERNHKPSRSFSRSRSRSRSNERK
UniProt Q9C004: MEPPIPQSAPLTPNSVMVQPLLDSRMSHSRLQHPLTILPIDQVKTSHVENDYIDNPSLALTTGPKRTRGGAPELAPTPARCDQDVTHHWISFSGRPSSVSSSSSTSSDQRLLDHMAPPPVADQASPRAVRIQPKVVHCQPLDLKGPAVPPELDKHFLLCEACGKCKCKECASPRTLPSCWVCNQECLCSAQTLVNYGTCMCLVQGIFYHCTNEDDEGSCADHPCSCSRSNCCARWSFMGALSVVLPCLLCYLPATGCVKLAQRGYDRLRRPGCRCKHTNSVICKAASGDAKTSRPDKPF
UniProt P15907: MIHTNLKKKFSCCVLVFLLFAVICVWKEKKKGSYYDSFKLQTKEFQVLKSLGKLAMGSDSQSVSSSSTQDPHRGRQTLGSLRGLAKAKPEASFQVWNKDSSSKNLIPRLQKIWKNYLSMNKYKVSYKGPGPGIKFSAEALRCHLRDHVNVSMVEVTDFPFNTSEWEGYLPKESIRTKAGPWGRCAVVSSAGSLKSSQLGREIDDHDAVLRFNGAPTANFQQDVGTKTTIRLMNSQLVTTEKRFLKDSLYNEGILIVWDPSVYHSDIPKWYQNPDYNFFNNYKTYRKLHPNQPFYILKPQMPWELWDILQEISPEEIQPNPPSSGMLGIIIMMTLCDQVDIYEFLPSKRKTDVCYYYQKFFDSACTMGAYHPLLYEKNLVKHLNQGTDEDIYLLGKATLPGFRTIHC
UniProt P35270: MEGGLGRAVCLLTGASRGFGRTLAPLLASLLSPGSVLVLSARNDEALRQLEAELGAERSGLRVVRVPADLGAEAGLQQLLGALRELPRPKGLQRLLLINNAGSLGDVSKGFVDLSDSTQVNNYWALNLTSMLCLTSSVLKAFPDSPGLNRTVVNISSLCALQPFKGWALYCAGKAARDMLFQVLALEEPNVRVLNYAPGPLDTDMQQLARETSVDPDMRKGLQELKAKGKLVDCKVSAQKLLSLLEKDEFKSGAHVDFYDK
UniProt Q6ZUB1: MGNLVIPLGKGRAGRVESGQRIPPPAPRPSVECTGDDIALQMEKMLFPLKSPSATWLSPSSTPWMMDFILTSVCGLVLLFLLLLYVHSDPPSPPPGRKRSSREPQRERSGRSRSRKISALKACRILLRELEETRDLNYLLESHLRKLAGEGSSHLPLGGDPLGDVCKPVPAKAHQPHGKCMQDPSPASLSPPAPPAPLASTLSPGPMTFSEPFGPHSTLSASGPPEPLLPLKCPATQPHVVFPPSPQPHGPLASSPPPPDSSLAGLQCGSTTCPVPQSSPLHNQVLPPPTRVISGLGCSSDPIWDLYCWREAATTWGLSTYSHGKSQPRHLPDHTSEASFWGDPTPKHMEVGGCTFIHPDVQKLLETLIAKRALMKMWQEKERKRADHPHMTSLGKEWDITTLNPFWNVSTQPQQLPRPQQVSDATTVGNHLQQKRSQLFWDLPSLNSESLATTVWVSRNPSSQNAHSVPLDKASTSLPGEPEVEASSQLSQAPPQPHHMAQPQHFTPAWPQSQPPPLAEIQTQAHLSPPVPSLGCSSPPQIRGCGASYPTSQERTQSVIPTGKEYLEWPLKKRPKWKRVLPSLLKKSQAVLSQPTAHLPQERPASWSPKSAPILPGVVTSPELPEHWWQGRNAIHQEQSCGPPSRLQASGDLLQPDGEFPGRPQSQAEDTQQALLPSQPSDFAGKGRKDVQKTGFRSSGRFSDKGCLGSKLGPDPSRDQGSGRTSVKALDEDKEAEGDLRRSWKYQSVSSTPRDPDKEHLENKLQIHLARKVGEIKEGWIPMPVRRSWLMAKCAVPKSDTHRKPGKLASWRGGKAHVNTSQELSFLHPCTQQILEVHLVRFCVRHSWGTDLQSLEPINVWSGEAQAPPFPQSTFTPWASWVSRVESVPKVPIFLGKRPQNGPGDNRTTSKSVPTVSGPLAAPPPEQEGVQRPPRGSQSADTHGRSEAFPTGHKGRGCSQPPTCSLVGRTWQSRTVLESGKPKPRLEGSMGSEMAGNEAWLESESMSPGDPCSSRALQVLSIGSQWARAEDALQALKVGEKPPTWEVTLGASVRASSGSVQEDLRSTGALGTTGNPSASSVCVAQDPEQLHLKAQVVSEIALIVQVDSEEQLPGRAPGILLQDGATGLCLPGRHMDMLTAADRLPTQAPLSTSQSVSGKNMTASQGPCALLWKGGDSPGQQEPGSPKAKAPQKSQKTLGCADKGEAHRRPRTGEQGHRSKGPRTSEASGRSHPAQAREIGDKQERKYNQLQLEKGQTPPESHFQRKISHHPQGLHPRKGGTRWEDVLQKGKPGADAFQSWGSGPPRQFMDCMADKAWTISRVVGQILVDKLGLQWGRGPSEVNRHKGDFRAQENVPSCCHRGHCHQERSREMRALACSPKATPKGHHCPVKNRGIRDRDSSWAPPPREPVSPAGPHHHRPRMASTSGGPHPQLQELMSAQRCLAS
UniProt P51571: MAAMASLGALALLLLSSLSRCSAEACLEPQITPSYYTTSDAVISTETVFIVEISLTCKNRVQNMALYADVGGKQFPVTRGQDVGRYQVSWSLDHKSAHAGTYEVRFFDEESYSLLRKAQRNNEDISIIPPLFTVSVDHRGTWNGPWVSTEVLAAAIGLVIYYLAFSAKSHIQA
UniProt Q8WVM7: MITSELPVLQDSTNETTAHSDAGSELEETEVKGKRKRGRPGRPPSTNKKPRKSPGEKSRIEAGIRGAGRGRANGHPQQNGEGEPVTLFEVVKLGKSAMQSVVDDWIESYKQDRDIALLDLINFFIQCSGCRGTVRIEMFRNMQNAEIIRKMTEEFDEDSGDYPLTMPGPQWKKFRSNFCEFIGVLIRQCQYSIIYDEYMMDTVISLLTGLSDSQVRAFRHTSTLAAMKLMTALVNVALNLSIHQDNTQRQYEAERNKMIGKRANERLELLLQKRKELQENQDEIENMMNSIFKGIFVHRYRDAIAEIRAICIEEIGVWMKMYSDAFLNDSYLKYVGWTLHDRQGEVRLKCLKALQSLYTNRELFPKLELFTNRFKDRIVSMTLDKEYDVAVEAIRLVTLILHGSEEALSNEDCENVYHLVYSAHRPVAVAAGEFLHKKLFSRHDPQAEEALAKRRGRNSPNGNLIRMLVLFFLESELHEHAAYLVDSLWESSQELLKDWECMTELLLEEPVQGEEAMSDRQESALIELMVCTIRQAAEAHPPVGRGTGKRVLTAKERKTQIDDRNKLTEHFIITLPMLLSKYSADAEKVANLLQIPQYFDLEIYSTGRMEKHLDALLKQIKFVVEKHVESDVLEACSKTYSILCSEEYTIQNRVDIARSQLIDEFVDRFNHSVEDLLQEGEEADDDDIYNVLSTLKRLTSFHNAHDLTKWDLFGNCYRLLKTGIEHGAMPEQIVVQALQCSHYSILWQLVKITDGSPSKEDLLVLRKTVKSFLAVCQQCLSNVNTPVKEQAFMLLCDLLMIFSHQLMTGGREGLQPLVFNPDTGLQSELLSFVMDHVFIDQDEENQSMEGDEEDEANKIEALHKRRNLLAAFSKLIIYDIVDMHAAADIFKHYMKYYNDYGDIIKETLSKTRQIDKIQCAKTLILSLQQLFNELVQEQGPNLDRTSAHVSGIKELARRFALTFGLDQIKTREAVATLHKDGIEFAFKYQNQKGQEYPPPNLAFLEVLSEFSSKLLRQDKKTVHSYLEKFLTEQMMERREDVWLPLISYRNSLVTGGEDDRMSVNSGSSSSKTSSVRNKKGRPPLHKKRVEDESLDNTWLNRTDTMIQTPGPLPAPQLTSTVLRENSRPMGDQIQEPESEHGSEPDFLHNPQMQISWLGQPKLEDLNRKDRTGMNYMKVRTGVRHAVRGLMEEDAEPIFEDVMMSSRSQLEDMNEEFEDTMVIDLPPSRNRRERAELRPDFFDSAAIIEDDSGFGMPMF

[2] = compound: CON(C)C(=O)N1N=C(c2cc(F)ccc2F)S[C@@]1(CCCN)c1ccccc1 [filanesib]
Summary of the method: as §1

[3] = compound: CO[C@H]1C[C@@H]2CC[C@@H](C)[C@@](O)(O2)C(=O)C(=O)N2CCCC[C@H]2C(=O)O[C@H]([C@H](C)C[C@@H]2CC[C@H](n3cnnn3)[C@H](OC)C2)CC(=O)[C@H](C)/C=C(\C)[C@@H](O)[C@@H](OC)C(=O)[C@H](C)C[C@H](C)/C=C/C=C/C=C/1C [zotarolimus]
Summary of the method: as §1

[4] = compound: COc1cc(C(=O)O)ccc1NC(=O)[C@@H]1N[C@@H](CC(C)(C)C)[C@](C#N)(c2ccc(Cl)cc2F)[C@H]1c1cccc(Cl)c1F [idasanutlin]
Summary of the method: as §1

[5] = compound: COc1cc(Nc2ncc3c(n2)-c2ccc(Cl)cc2C(c2c(F)cccc2OC)=NC3)ccc1C(=O)O [alisertib]
Summary of the method: as §1

[6] = compound: COc1cc2nc(-c3cc(F)ccc3O)nc(N[C@@H]3CNC[C@H]3C(C)(C)O)c2cc1OC
Summary of the method: as §1

[7] = compound: COc1cc2ncnc(Nc3ccc(F)c(Cl)c3)c2cc1OCCCN1CCOCC1 [gefitinib]
Summary of the method: as §1

[8] = compound: COc1cccc2cc(-c3nc([C@H]4CC[C@H](C(=O)O)CC4)n4ncnc(N)c34)[nH]c12
Summary of the method: as §1

[9] = compound: CS(=O)(=O)CCNCc1ccc(-c2ccc3ncnc(Nc4ccc(OCc5cccc(F)c5)c(Cl)c4)c3c2)o1 [lapatinib]
Summary of the method: as §1

[10] = compound: CS(=O)(=O)N1CCN(Cc2cc3nc(-c4cccc5[nH]ncc45)nc(N4CCOCC4)c3s2)CC1 [pictilisib]
Summary of the method: as §1

Row | Target | log2 fold change [1] | log2 fold change [2] | log2 fold change [3] | log2 fold change [4] | log2 fold change [5] | log2 fold change [6] | log2 fold change [7] | log2 fold change [8] | log2 fold change [9] | log2 fold change [10]
1 | SPG7 (UniProt Q9UQ90) | inactive: -0.032 | inactive: -0.05 | inactive: -0.058 | inactive: 0.019 | inactive: 0.026 | inactive: 0.03 | inactive: 0.031 | inactive: 0.063 | inactive: 0.006 | inactive: 0.029
2 | SPTB isoform 2 (UniProt P11277) | inactive: -0.148 | inactive: 0.346 | inactive: 0.047 | inactive: 0.032 | inactive: -0.028 | inactive: -0.179 | inactive: -0.097 | inactive: -0.216 | inactive: -0.053 | inactive: -0.028
3 | SPART (UniProt Q8N0X7) | inactive: -0.073 | inactive: 0.011 | inactive: 0.02 | inactive: 0.03 | inactive: -0.009 | inactive: 0.067 | inactive: 0.054 | inactive: -0.028 | inactive: -0.015 | inactive: 0.05
4 | SRA1 (UniProt Q9HD15) | inactive: -0.032 | inactive: 0.002 | inactive: 0.015 | inactive: -0.012 | inactive: 0.009 | inactive: 0.015 | inactive: -0.014 | inactive: 0.041 | inactive: -0.037 | inactive: 0.054
5 | SRP9 (UniProt P49458) | inactive: -0.06 | inactive: 0.332 | inactive: -0.054 | inactive: 0.19 | inactive: -0.078 | inactive: -0.049 | inactive: -0.036 | inactive: -0.171 | inactive: 0.09 | inactive: -0.103
6 | STK24 (UniProt Q9Y6E0) | inactive: -0.012 | inactive: -0.075 | inactive: -0.003 | inactive: -0.025 | inactive: -0.021 | inactive: 0.089 | inactive: -0.028 | inactive: 0.044 | inactive: -0.038 | inactive: -0.025
7 | SPTLC1 (UniProt O15269) | inactive: -0.009 | inactive: -0.09 | inactive: 0 | inactive: -0.063 | inactive: -0.102 | inactive: 0.008 | inactive: 0.061 | inactive: 0.051 | inactive: 0 | inactive: -0.009
8 | STK26 (UniProt Q9P289) | inactive: 0.018 | inactive: -0.147 | inactive: -0.03 | inactive: 0.045 | inactive: -0.059 | inactive: 0.069 | inactive: -0.037 | inactive: 0.009 | inactive: 0.019 | inactive: -0.105
9 | SRP14 (UniProt P37108) | inactive: -0.258 | inactive: 0.36 | inactive: -0.023 | inactive: 0.224 | inactive: -0.111 | inactive: -0.106 | inactive: -0.022 | inactive: -0.209 | inactive: 0.1 | inactive: -0.126
10 | STK11 (UniProt Q15831) | inactive: 0.007 | inactive: 0.026 | inactive: -0.011 | inactive: -0.029 | inactive: -0.044 | inactive: -0.03 | inactive: 0.009 | inactive: 0.045 | inactive: -0.004 | inactive: 0.151
11 | STAT6 (UniProt P42226) | inactive: 0.019 | inactive: 0.091 | inactive: 0.055 | inactive: 0.102 | inactive: 0.094 | inactive: 0.002 | inactive: 0.014 | inactive: 0.155 | inactive: -0.016 | inactive: -0.13
12 | SSRP1 (UniProt Q08945) | inactive: 0.118 | inactive: 0.023 | inactive: 0.036 | inactive: -0.005 | inactive: -0.037 | inactive: -0.05 | inactive: 0.028 | inactive: -0.014 | inactive: 0.008 | inactive: -0.026
13 | SRXN1 (UniProt Q9BYN0) | inactive: 0.406 | inactive: 0.076 | inactive: 0.022 | inactive: -0.028 | inactive: 0.098 | inactive: -0.036 | inactive: 0.012 | inactive: 0.001 | inactive: 0.151 | active: -0.562
14 | STARD9 (UniProt Q9P2P6) | inactive: -0.037 | inactive: -0.028 | inactive: 0.098 | inactive: -0.035 | inactive: 0.096 | inactive: 0.058 | inactive: -0.132 | inactive: -0.185 | inactive: 0.154 | inactive: 0.008
15 | SRP54 (UniProt P61011) | inactive: 0.02 | inactive: -0.013 | inactive: 0.035 | inactive: -0.031 | inactive: -0.031 | inactive: 0.035 | inactive: 0.01 | inactive: -0.039 | inactive: -0.003 | inactive: 0.004
16 | SRSF10 (UniProt O75494) | inactive: -0.102 | inactive: 0.424 | inactive: -0.157 | inactive: 0.388 | inactive: -0.099 | inactive: -0.169 | inactive: -0.009 | inactive: -0.056 | inactive: 0.101 | inactive: -0.042
17 | SRSF3 (UniProt P84103) | inactive: -0.226 | inactive: 0.193 | inactive: -0.054 | inactive: 0.217 | inactive: -0.101 | inactive: -0.011 | inactive: -0.026 | inactive: -0.009 | inactive: -0.006 | inactive: -0.018
18 | SPRY4 (UniProt Q9C004) | inactive: -0.012 | inactive: -0.103 | inactive: -0.033 | inactive: -0.042 | inactive: 0.005 | inactive: -0.017 | inactive: -0.003 | inactive: -0.015 | inactive: -0.073 | inactive: 0.026
19 | SSBP1 (UniProt Q04837) | inactive: -0.11 | inactive: 0.086 | inactive: -0.002 | inactive: 0.051 | inactive: -0.073 | inactive: -0.003 | inactive: -0.005 | inactive: -0.009 | inactive: 0.033 | inactive: 0.041
20 | ST6GAL1 (UniProt P15907) | inactive: 0.013 | active: 0.224 | inactive: 0.051 | inactive: 0.066 | inactive: -0.085 | inactive: 0.046 | inactive: 0.095 | inactive: -0.003 | inactive: 0.116 | inactive: 0.063
21 | SRSF4 (UniProt Q08170) | inactive: -0.085 | inactive: 0.234 | inactive: 0.053 | inactive: 0.207 | inactive: -0.137 | inactive: -0.04 | inactive: -0.014 | inactive: -0.089 | inactive: 0.137 | inactive: -0.007
22 | SPG21 (UniProt Q9NZD8) | inactive: -0.026 | inactive: 0 | inactive: 0.063 | inactive: 0.03 | inactive: -0.084 | inactive: 0.174 | inactive: 0.226 | inactive: 0.011 | inactive: 0.072 | inactive: 0.064
23 | SRSF7 (UniProt Q16629) | inactive: -0.089 | inactive: 0.422 | inactive: -0.015 | inactive: 0.327 | inactive: -0.114 | inactive: -0.047 | inactive: 0.084 | inactive: 0.013 | inactive: 0.1 | inactive: -0.003
24 | SPR (UniProt P35270) | active: 0.794 | inactive: -0.087 | inactive: 0 | inactive: -0.225 | inactive: -0.051 | inactive: -0.039 | inactive: -0.008 | inactive: 0.021 | inactive: -0.031 | active: 0.681
25 | SPATA31E1 (UniProt Q6ZUB1) | inactive: -0.422 | inactive: 0.135 | inactive: -0.189 | inactive: 0.165 | inactive: 0.246 | inactive: 0.153 | inactive: 0.019 | inactive: 0.195 | inactive: -0.381 | inactive: 0.389
26 | SRC isoform 2 (UniProt P12931) | inactive: 0.197 | inactive: 0.229 | inactive: -0.123 | inactive: 0.119 | inactive: 0.01 | inactive: 0.017 |  | inactive: 0.219 | inactive: 0.088 | inactive: 0.113
27 | SRSF1 (UniProt Q07955) | inactive: 0.073 | inactive: 0.248 | inactive: -0.046 | inactive: 0.237 | inactive: -0.107 | inactive: -0.024 | inactive: -0.008 | inactive: 0.004 | inactive: 0.067 | inactive: -0.124
28 | SSR4 (UniProt P51571) | inactive: -0.015 | inactive: -0.052 | inactive: 0.036 | inactive: -0.012 | inactive: -0.004 | inactive: 0.08 | inactive: -0.023 | inactive: 0.047 | inactive: -0.05 | inactive: 0.106
29 | SSR1 (UniProt P43307) | inactive: -0.009 | inactive: -0.034 | inactive: -0.034 | inactive: -0.005 | inactive: -0.033 | inactive: 0.021 | inactive: 0.021 | inactive: 0.078 | inactive: -0.015 | inactive: 0.003
30 | STAG1 (UniProt Q8WVM7) | inactive: 0.096 | inactive: -0.001 | inactive: 0.045 | inactive: -0.046 | inactive: -0.056 | inactive: 0.015 | inactive: 0.002 | inactive: 0 | inactive: 0.023 | inactive: 0.005

Some of the entries so far, as comma-separated lines.
Row,Target,log2 fold change [1],log2 fold change [2],log2 fold change [3],log2 fold change [4],log2 fold change [5],log2 fold change [6],log2 fold change [7],log2 fold change [8],log2 fold change [9],log2 fold change [10]
2,SPTB isoform 2 (UniProt P11277),inactive: -0.148,inactive: 0.346,inactive: 0.047,inactive: 0.032,inactive: -0.028,inactive: -0.179,inactive: -0.097,inactive: -0.216,inactive: -0.053,inactive: -0.028
3,SPART (UniProt Q8N0X7),inactive: -0.073,inactive: 0.011,inactive: 0.02,inactive: 0.03,inactive: -0.009,inactive: 0.067,inactive: 0.054,inactive: -0.028,inactive: -0.015,inactive: 0.05
4,SRA1 (UniProt Q9HD15),inactive: -0.032,inactive: 0.002,inactive: 0.015,inactive: -0.012,inactive: 0.009,inactive: 0.015,inactive: -0.014,inactive: 0.041,inactive: -0.037,inactive: 0.054
5,SRP9 (UniProt P49458),inactive: -0.06,inactive: 0.332,inactive: -0.054,inactive: 0.19,inactive: -0.078,inactive: -0.049,inactive: -0.036,inactive: -0.171,inactive: 0.09,inactive: -0.103
6,STK24 (UniProt Q9Y6E0),inactive: -0.012,inactive: -0.075,inactive: -0.003,inactive: -0.025,inactive: -0.021,inactive: 0.089,inactive: -0.028,inactive: 0.044,inactive: -0.038,inactive: -0.025
7,SPTLC1 (UniProt O15269),inactive: -0.009,inactive: -0.09,inactive: 0,inactive: -0.063,inactive: -0.102,inactive: 0.008,inactive: 0.061,inactive: 0.051,inactive: 0,inactive: -0.009
8,STK26 (UniProt Q9P289),inactive: 0.018,inactive: -0.147,inactive: -0.03,inactive: 0.045,inactive: -0.059,inactive: 0.069,inactive: -0.037,inactive: 0.009,inactive: 0.019,inactive: -0.105
